Test [1] deals with mice ear edema induced by arachidonic acid. Kind of test: Topical anti-inflammatory effect, arachidonic acid (AA) induced ear edema in mice. The format is in vivo. The note with it: 3.2 µmol/mouse, 1 h after AA, n = 8, read-out: % TAAA ± SEM (percent reduction of the ear edema, arachidonic acid). The method, then:
The inflammatory agent arachidonic acid (AA) and phorbol 12-myristate 13-acetate (TPA) were used to assess the anti-inflammatory effect/action mechanism of the starting compounds, new synthetic products and reference drugs. […] Adult male CF-1 mice (20–25 g), obtained from a stock maintained at the Chilean Public Health Institute, were used to assess the anti-inflammatory effect. All animals were housed in a climate- and light-controlled room with a 12 h light-dark cycle, fasted overnight before the day of the assays, with free access to water. The anti-inflammatory activity of each compound was evaluated in groups of 8 treated and 16 control mice. Due to ethical considerations, the number of animals was kept to a minimum and single dose experiments were carried out.
The pro-inflammatory agents TPA and AA, the reference drugs indomethacin and nimesulide were from Sigma. […] The percent topical anti-inflammatory activity (TA) was evaluated according to the following equation: (1) %TA=[ Wc−Ws/Wc]× 100 where Wc and Ws are the different median values of the weights of the right and the left ear sections of the control and the treated animals, respectively.
For the animal experiments all values are presented as median ± SEM. […] Results are expressed as IC50 values (µM) ± S.D.

In another test the test system is hepatocytes HepG2. Kind of test: Cytotoxicity, MTT reduction assay, HepG2. The note with it: Homo sapiens, confluent cultures, 24 h, read-out: IC50 ± SD, HepG2. The class given is cell-based. How it is done: The human cell lines, MRC-5 normal lung fibroblasts (CCL-171), AGS gastric epithelial adenocarcinoma cells (CRL-1739) and HepG2 hepatocellular carcinoma cells (HB-8065) were obtained from the American Type Culture Collection (ATCC, Manasas, VA, USA). The cells were grown as monolayers in the following media: MRC-5 and HepG2 in MEM and AGS in Ham F-12. The MEM medium contained 2 mM L-glutamine, 1 mM sodium pyruvate and 1.5 g/L sodium bicarbonate. Ham F-12 was supplemented with 2 mM L-glutamine and 1.5 g/L sodium bicarbonate. Both media were supplemented with 10% heat inactivated fetal bovine serum, 100 IU/mL penicillin and 100 µg/mL streptomycin in a humidified incubator with 5% CO2 in air at 37 °C. For the experiments, cells were plated at a density of 25,000 cells/mL in 96-well plates. […] Compounds were first dissolved in DMSO and then in medium. The final concentration of DMSO in the test medium and controls was 1%. […] The cell viability for each compound was calculated comparing the cell viability of the untreated controls (100%) with the cell viability of the different concentrations of each compound. Each concentration was tested in quadruplicate together with the control and repeated three times in separate experiments. Cell viability was determined at the end of the incubation by means of the MTT reduction assay. […] Results are expressed as IC50 values (µM) ± S.D.
For orientation: Tetrazolium dyes change colour on reduction, which living cells bring about.

As usually defined, the IC50 is the midpoint of a concentration-inhibition curve. `COc1ccc2cc([C@H](C)C(=O)O)ccc2c1` [Compound 5, naproxen, reference compound]: the inhibition in vivo at 3.2 µmol/animal in test [1] is 1.8 ± 7.5%. Also, the IC50 in the test with hepatocytes HepG2 was greater than 1000 µM.

The record behind these values is paper PMC6272242, “Topical Anti-inflammatory Activity of New Hybrid Molecules of Terpenes and Synthetic Drugs” (Molecules, 2015).
